Data taken from PMC9445324.
These are yes or no findings as the source states them, for the method shown. In cells and extracts the contact can be indirect. Some binding calls cover weakened binding; strength is not graded here. Where a sequence is shown, tags or fusion partners need not be part of it.

Chains of the proteins cited; added tags and fusions are not shown. Lines headed by an entry give the natural chain unless they say otherwise; changes in a name come on top. A line that says so, or that is headed by a name, gives the form on record, which may keep a tag or linker.
UniProt P19538: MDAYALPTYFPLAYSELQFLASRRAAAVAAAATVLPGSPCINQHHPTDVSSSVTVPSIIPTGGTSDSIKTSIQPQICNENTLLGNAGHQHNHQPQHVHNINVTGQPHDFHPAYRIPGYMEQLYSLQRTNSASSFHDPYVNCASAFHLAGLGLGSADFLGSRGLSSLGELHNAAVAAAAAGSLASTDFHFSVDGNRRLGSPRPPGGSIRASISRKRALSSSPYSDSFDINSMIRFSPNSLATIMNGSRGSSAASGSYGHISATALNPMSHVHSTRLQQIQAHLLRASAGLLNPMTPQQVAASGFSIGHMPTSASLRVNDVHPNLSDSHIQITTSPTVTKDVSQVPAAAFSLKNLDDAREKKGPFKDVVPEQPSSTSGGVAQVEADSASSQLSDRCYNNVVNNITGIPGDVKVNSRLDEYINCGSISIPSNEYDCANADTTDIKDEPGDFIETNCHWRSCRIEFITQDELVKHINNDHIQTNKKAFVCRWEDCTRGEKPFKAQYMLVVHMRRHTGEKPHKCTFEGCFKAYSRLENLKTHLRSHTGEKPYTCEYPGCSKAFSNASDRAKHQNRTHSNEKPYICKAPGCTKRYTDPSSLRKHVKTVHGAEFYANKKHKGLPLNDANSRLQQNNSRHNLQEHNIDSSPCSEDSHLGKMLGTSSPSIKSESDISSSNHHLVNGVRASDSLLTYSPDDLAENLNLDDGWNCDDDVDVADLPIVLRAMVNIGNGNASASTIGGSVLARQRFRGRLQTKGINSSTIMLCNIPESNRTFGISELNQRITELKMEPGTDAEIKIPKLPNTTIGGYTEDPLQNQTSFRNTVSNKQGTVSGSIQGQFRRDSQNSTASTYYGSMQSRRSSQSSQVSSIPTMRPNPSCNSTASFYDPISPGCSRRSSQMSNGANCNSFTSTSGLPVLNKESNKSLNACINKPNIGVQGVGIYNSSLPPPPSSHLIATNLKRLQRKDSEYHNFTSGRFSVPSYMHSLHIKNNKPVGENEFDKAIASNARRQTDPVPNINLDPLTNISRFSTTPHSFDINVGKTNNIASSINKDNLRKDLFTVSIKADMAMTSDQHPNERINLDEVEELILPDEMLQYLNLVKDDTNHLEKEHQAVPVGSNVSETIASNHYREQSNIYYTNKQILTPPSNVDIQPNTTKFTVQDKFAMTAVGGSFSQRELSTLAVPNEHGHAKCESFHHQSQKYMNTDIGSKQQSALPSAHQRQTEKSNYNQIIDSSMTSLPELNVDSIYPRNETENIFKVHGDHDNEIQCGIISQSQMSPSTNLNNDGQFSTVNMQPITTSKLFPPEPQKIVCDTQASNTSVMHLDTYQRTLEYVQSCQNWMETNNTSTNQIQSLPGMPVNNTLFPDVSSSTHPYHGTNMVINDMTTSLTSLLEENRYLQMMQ
Myc-Ci^-PKA (P19538, form named): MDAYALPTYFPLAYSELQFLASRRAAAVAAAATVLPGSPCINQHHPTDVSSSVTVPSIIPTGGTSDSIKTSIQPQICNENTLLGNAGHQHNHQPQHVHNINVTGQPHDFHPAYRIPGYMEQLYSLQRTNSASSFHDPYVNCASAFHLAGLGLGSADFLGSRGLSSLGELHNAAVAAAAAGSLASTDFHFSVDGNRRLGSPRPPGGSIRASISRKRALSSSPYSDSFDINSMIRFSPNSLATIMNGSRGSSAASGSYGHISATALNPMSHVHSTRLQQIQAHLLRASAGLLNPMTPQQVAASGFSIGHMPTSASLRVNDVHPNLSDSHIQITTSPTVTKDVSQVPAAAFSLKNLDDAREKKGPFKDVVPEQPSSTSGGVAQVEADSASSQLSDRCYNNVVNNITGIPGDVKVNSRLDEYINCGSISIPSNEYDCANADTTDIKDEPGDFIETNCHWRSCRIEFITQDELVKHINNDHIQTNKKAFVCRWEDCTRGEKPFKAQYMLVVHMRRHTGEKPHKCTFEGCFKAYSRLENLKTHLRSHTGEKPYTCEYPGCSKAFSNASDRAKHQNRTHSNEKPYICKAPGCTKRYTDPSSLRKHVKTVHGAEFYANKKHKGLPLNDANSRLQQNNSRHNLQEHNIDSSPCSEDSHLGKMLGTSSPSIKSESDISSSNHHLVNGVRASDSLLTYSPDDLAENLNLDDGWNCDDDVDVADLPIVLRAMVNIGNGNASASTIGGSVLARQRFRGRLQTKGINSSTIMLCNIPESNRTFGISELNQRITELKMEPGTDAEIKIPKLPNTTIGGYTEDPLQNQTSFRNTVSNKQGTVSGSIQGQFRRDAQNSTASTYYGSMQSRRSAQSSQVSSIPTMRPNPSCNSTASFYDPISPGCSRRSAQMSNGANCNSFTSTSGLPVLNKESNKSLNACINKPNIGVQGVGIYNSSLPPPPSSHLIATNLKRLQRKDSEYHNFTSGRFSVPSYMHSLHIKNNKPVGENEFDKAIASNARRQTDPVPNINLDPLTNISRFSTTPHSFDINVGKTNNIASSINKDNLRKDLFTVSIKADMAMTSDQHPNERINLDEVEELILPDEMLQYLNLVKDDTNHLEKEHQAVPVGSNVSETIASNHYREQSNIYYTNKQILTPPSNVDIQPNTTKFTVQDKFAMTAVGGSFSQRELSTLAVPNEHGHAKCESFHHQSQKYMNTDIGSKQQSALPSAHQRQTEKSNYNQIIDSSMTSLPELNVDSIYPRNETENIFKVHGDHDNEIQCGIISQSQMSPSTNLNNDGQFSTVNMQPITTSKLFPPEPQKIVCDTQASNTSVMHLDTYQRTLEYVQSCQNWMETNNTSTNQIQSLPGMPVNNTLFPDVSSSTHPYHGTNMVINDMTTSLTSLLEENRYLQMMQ
UniProt Q0VGT2: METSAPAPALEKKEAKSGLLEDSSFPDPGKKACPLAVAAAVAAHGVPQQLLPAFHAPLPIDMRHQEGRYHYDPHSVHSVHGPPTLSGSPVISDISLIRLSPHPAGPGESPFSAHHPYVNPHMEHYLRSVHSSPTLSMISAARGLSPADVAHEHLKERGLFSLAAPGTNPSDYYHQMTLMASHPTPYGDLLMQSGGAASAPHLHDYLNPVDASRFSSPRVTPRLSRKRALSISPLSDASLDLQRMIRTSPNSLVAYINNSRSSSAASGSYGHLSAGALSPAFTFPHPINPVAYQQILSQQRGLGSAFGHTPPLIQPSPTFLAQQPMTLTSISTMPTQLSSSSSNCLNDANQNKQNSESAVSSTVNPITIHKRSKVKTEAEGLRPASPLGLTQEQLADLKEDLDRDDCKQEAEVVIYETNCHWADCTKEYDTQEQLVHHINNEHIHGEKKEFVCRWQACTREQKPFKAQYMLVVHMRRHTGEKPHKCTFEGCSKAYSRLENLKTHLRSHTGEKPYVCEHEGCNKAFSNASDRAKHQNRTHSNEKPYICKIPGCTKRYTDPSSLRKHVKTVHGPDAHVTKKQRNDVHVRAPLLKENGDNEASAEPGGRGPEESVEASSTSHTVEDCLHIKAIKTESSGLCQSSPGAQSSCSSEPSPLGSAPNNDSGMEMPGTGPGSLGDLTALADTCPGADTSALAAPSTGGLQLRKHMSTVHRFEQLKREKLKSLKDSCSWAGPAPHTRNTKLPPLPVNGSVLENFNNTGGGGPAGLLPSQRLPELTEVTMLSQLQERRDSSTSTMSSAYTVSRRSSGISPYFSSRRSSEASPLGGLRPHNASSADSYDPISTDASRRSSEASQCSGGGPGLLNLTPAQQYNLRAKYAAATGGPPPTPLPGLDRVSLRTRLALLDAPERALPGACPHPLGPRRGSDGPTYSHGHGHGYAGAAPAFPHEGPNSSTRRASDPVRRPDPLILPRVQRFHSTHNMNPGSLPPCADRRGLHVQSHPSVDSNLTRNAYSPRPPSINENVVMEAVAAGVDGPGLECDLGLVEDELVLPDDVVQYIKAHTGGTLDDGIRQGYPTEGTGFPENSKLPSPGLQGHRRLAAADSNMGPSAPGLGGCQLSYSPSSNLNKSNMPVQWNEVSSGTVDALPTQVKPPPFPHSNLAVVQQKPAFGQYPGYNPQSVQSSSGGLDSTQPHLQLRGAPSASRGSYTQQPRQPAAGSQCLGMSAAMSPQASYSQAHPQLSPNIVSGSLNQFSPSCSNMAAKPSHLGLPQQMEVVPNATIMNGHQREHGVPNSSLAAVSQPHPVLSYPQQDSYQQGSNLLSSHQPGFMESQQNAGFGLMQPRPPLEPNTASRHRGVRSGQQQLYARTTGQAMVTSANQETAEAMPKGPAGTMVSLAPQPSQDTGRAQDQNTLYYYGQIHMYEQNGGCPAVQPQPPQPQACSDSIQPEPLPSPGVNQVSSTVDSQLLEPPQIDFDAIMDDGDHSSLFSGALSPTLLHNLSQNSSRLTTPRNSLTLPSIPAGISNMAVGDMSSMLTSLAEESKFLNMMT

B1: HA-Sufu (protein, UniProt Q9VG38 1-468)
chain: MAEANLDKKPEVKPPPGLKAIIDHLGQVYPNQPNPLQVTTLLKYWLGGQDPLDYISMYNYPGDVDRNVPPHWHYISFGLSDLHGDERVHLREEGVTRSGMGFELTFRLAKTEIELKQQIENPEKPQRPPTWPANLLQAIGRYCFQTGNGLCFGDNIPWRKSLDGSTTSKLQNLLVAQDPQLGCIDTPTGTVDFCQIVGVFDDELEQASRWNGRGVLNFLRQDMQTGGDWLVTNMDRQMSVFELFPETLLNLQDDLEKQGSDLAGVNADFTFRELKPTKEVKEEVDFQALSEKCANDENNRQLTDTQMKREEPSFPQSMSMSSNSLHKSCPLDFQAQAPNCISLDGIEITLAPGVAKYLLLAIKDRIRHGRHFTFKAQHLALTLVAESVTGSAVTVNEPYGVLGYWIQVLIPDELVPRLMEDFRSAGLDEKCEPKERLELEWPDKNLKLIIDQPEPVLPMSLDAAPLKM
B2: Flag-Sufu (protein, UniProt Q9Z0P7 1-484)
chain: MAELRPSVAPGPAAPPASGPSAPPAFASLFPPGLHAIYGECRRLYPDQPNPLQVTAIVKYWLGGPDPLDYVSMYRNMGSPSANIPEHWHYISFGLSDLYGDNRVHEFTGTDGPSGFGFELTFRLKRETGESAPPTWPAELMQGLARYVFQSENTFCSGDHVSWHSPLDNSESRIQHMLLTEDPQMQPVRTPFGVVTFLQIVGVCTEELHSAQQWNGQGILELLRTVPIAGGPWLITDMRRGETIFEIDPHLQERVDKGIETDGSNLSGVSAKCAWDDLSRPPEDEEDSRSICLGTQPRRLSGKDTEQIRETLRRGLEINSKPVLPPINSQRQNGLTHDRAPSRKDSLGSDSSTAIIPHELIRTRQLESVHLKFNQESGALIPLCLRGRLLHGRHFTYKSITGDMAITFVSTGVEGAFATEEHPYAAHGPWLQILLTEEFVEKMLEDLEDLTSPEEFKLPKEYSWPEKKLKVSILPDVVFDSPLH

Columns and labels:
Myc-Ci^-PKA (Drosophila) = Myc-Ci^-PKA (Drosophila) (UniProt P19538); assay: co-IP; S2R+ cells transfected with Myc-Ci^-PKA variants and HA-Sufu; lysates immunoprecipitated with tag antibody and protein A-Sepharose, Western blot
Myc-Gli2^WT (mouse) = Myc-Gli2^WT (mouse) (UniProt Q0VGT2); assay: co-IP; Flag-Sufu coimmunoprecipitated with Myc-Gli2 variants; cells not given; Western blot

Row | Binder | binding (Myc-Ci^-PKA (Drosophila)) | binding (Myc-Gli2^WT (mouse))
1 | B1 | binds | –
2 | B2 | – | binds
